Results are given in words; binding and its absence hold for the method and conditions named. Some results given as binding are weak or reduced against the parent protein; the word gives no strength. Tags and fused reporters may be left off the sequences shown.

Chains of the proteins cited; added tags and fusions are not shown. Residues count along the entry.
UniProt Q3UH93, residues 49-1925: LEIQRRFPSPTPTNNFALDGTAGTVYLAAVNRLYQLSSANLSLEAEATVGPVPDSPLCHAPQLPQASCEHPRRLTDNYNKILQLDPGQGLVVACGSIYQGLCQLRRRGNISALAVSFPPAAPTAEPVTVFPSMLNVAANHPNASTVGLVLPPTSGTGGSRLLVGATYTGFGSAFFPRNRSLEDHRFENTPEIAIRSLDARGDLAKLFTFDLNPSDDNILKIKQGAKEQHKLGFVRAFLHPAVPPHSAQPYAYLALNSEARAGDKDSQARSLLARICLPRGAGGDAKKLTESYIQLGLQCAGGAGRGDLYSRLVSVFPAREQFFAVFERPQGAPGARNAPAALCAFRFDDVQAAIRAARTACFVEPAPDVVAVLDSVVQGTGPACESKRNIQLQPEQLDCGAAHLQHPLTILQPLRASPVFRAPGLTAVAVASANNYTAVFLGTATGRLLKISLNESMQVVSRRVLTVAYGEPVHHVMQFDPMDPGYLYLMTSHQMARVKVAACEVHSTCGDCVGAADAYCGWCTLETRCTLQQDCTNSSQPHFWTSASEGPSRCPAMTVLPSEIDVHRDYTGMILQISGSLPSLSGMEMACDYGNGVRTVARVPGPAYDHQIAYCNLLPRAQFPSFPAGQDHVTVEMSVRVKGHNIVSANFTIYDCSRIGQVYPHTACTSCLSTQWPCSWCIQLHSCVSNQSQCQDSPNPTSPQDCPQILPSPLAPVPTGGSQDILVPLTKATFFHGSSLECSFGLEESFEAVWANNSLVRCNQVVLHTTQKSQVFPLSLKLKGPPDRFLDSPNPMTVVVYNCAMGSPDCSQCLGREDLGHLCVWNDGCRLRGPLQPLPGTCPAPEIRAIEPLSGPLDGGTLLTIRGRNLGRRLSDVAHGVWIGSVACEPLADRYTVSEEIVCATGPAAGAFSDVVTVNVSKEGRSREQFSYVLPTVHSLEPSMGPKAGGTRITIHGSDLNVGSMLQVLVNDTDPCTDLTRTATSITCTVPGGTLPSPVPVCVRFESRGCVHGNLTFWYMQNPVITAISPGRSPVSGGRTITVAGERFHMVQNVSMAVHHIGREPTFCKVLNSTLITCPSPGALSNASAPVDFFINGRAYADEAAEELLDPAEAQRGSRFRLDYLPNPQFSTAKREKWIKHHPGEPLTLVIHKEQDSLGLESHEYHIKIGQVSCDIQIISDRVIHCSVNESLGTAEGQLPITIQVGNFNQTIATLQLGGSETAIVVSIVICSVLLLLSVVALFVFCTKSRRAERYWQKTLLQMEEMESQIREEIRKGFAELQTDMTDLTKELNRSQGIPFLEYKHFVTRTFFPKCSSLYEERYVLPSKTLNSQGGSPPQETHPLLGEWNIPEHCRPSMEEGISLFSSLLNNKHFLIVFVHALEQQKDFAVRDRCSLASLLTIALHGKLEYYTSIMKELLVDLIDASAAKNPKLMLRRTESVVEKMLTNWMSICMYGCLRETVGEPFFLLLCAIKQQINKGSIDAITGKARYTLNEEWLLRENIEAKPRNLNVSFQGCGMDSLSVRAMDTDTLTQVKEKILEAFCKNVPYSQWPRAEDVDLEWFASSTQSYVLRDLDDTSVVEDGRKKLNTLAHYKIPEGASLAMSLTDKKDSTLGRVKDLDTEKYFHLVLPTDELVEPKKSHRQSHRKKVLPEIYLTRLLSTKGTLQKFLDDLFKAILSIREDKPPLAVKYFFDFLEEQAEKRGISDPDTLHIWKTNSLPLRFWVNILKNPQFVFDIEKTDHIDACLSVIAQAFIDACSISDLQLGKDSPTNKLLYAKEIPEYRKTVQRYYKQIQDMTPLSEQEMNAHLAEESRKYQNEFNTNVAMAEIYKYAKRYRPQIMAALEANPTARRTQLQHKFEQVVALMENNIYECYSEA

The target of the test is PlexinD1 (PLXND1) (mouse (endogenous in GN11 cells and E14.5 mouse brain)) (UniProt Q3UH93). Briefly: AP-binding assay; conditioned medium of COS-7 cells transfected with AP-SEMA3E put on methanol-fixed GN11 cells for 2 h at RT in PBS/MgCl2 after blocking with 10% FBS; endogenous AP heat-inactivated (65 °C, 3 h); bound AP detected with NBT/BCIP.

B1: Alkaline Phosphatase (AP)-tagged human SEMA3E, wild type (ligand, UniProt O15041-1 26-775)
chain: ADTTHPRLRLSHKELLNLNRTSIFHSPFGFLDLHTMLLDEYQERLFVGGRDLVYSLSLERISDGYKEIHWPSTALKMEECIMKGKDAGECANYVRVLHHYNRTHLLTCGTGAFDPVCAFIRVGYHLEDPLFHLESPRSERGRGRCPFDPSSSFISTLIGSELFAGLYSDYWSRDAAIFRSMGRLAHIRTEHDDERLLKEPKFVGSYMIPDNEDRDDNKVYFFFTEKALEAENNAHAIYTRVGRLCVNDVGGQRILVNKWSTFLKARLVCSVPGMNGIDTYFDELEDVFLLPTRDHKNPVIFGLFNTTSNIFRGHAICVYHMSSIRAAFNGPYAHKEGPEYHWSVYEGKVPYPRPGSCASKVNGGRYGTTKDYPDDAIRFARSHPLMYQAIKPAHKKPILVKTDGKYNLKQIAVDRVEAEDGQYDVLFIGTDNGIVLKVITIYNQEMESMEEVILEELQIFKDPVPIISMEISSKRQQLYIGSASAVAQVRFHHCDMYGSACADCCLARDPYCAWDGISCSRYYPTGTHAKRRFRRQDVRHGNAAQQCFGQQFVGDALDKTEEHLAYGIENNSTLLECTPRSLQAKVIWFVQKGRETRKEEVKTDDRVVKMDLGLLFLRLHKSDAGTYFCQTVEHSFVHTVRKITLEVVEEEKVEDMFNKDDEEDRHHRMPCPAQSSISQGAKPWYKEFLQLIGYSNFQRVEEYCEKVWCTDRKRKKLKMSPSKWKYANPQEKKLRSKPEHYRLPRHTLDS
For the molecule B1, the binding entry is listed as “binds”.
